Results are given in words; binding and its absence hold for the method and conditions named.

Experiment [1] has as its target Adenosine deaminase-like protein 1 (ADALP1), human (human) (UniProt Q6DHV7). The experiment can be described thus: SEC. In general terms: SEC sorts molecules by how far they enter the pores of the column.
Experiment [2] shares this target. Nature of the experiment: crystal structure.

B1: Adenosine deaminase-like protein 1 (ADALP1), human (enzyme, UniProt Q6DHV7 1-355)
chain: MIEAEEQQPCKTDFYSELPKVELHAHLNGSISSHTMKKLIAQKPDLKIHDQMTVIDKGKKRTLEECFQMFQTIHQLTSSPEDILMVTKDVIKEFADDGVKYLELRSTPRRENATGMTKKTYVESILEGIKQSKQENLDIDVRYLIAVDRRGGPLVAKETVKLAEEFFLSTEGTVLGLDLSGDPTVGQAKDFLEPLLEAKKAGLKLALHLSEIPNQKKETQILLDLLPDRIGHGTFLNSGEGGSLDLVDFVRQHRIPLELCLTSNVKSQTVPSYDQHHFGFWYSIAHPSVICTDDKGVFATHLSQEYQLAAETFNLTQSQVWDLSYESINYIFASDSTRSELRKKWNHLKPRVLHI
In the case of B1, the binding result in experiment [1] and in experiment [2] was “no binding” in each case.

(Values after article doi:10.1101/2024.02.16.580631 (bioRxiv, 2024).)
